# Data taken from PubChem BioAssay (NCATS).
# Inconclusive results, whose numbers are uncertain, are shown with a selection of clear calls. A potency beside an inconclusive call is a rough fit, not a confirmed value. The source made the active and inactive calls. Calls follow the shape of the dose curve; as a rule, active = well fitted cell-killing curve with a large enough effect; inconclusive = small, poorly fitted or top-dose-only effect, or effect the other way; inactive = flat fitted curve, though single readings scatter.
# Experiment: qHTS of pediatric cancer cell lines to identify multiple opportunities for drug repurposing: Confirmatory screen for control Hh wild type fibroblast cells (AID 1347121); also: nearly all actives have a fitted effect of over 70% in size;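 as to activity, negative = cytotoxic: plate controls were DMSO for no effect and bortezomib for full effect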
# Settings: viability qHTS; series mostly up to 45.9 µM; activity, negative = cytotoxic: at the top concentration
# Text: Drug repurposing or repositioning has been offered as a strategy for drug development in oncology programs. This approach has special potential for childhood cancers and other rare or orphan diseases, where the expected return on new drug development has been a disincentive to pharmaceuticals.
# In this project we exploit the poly-pharmacology of drugs to discover new indications via phenotypic screening of a panel of 19 well-characterized cell lines derived from solid tumors seen in children and adolescents. The goal is to identify approved drugs with previously unrecognized anticancer properties that has the potential to reveal new mechanisms and biological processes involved in carcinogenesis or drug resistance. We employed a titration-based paradigm (quantitative high-throughput screening or qHTS), where all compounds were tested at multiple concentrations for their effect on cell viability. Concentration-response curves (CRCs) were derived directly from the primary screen, and both potency and efficacy values were used to identify compounds with robust bioactivity profiles. We screened the NIH Chemical Genomics Center (NCGC) Pharmaceutical Collection (NPC) and Mechanism Interrogation Plate (MIPE) small molecule collections of approved and investigational compounds against these cell lines; and measured metabolically active cells after 48 hours of compound treatment as a proxy for cell viability.
# Assay Submitter: Nathalia J. Martinez, National Center for Advancing Translational Sciences, National Institutes of Health, Rockville, MD, USA; email: natalia.martinez@nih.gov
# [1] Shen, M et al. Quantitative high-throughput phenotypic screening of pediatric cancer cell lines identifies multiple opportunities for drug repurposing. Oncotarget 2017 Dec 19;9(4):4758-4772. PMID 29435139.
# The cells were obtained from University of North Carolina (UNC), Pediatric Preclinical Testing Program (PPT), and Coriell Institute (CI).
# qHTS cell viability assay:
# Cells were assayed in growth media at a density of 500-1,000 cells/well. Five microliters of cells were dispensed into 1,536-well, white, solid-bottom, TC-treated plates (Greiner Bio One) using a multidrop dispenser and incubated at 37 degrees C, 5% CO2, under a humidified atmosphere for 5 hours. Twenty-three nanoliters of compounds and controls (neutral control DMSO or positive control bortezomib at final concentration of 2.3 µM) were subsequently transferred by Kalypsys pintool. For primary screens, the MIPE collection was tested at 11-point dilutions (final concentrations range from 0.78 nM to 46 µM) and the NPC collection at 8-point dilutions (final concentrations range from 0.59 nM to 46 µM). Compounds tested in follow-up screens were assayed at 11-point dilutions. Cells were incubated for 48 hours, followed by addition of 3 µL of CellTiter-Glo (Promega). After a 15 min incubation at room temperature, samples were analyzed for luminescence intensity using a ViewLux High-throughput CCD imager equipped with clear filters.
# Potency is read from the fitted curve at half-maximal effect.
Structure (SMILES),"activity, negative = cytotoxic",Potency
CNCc1ccc(-c2[nH]c3cc(F)cc4c3c2CCNC4=O)cc1,inactive: -2.78%,–
Oc1c(Br)cc(Br)c2cccnc12,–,"inconclusive: 36.9 µM [cytotoxic, single point]"
COC(=O)c1nc(Cl)c(Cl)nc1N,–,"inconclusive: 16.5 µM [cytotoxic, partial curve]"
COCCn1c2c([n+](Cc3cnccn3)c1C)C(=O)c1ccccc1C2=O,–,active: 0.261 µM
Cc1[nH]c(C=C2C(=O)Nc3ccccc32)c(C)c1CCC(=O)O,inactive: 9.35%,–
CCCCc1oc2ccccc2c1C(=O)c1cc(I)c(OCCN(CC)CC)c(I)c1,–,active: 70.8 µM
CCC1(c2ccccc2)C(=O)NCNC1=O,inactive: -1.21%,–
CCNC(=O)c1noc(-c2cc(C(C)C)c(O)cc2O)c1-c1ccc(CN2CCOCC2)cc1,–,"inconclusive: 0.522 µM [cytotoxic, full curve]"
Oc1ccc(C2CCN(c3ccnc4ccccc34)CC2)cc1O,–,active: 7.37 µM
CC1(C)OC2=C(C(=O)c3ccccc3C2=O)[C@H](NCc2ccccc2)[C@H]1O,–,active: 13.1 µM
COC(=O)Nc1nc2ccc(Sc3ccccc3)cc2[nH]1,–,"inconclusive: 1.31 µM [cytotoxic, full curve, poor fit]"
CCCCCCCCCCCCOCCOCCOCCOCCOCCOCCOCCOCCOCCO,–,"inconclusive: 32.9 µM [cytotoxic, single point]"
COc1ncc(-c2ccc3nccc(-c4ccnnc4)c3c2)cc1NS(=O)(=O)c1ccc(F)cc1F,–,"inconclusive: 0.465 µM [cytotoxic, full curve, poor fit]"
NS(=O)(=O)c1cccc2c1C(=O)c1cccc(O)c1C2=O,–,active: 2.93 µM
O=C(Nc1cc2cc[nH]c2cn1)c1ccccc1,–,active: 14.7 µM
CCc1ccc(OCc2ccccc2C(=O)Nc2ccc3nc(C)cc(N)c3c2)cc1,–,active: 9.27 µM
CN(C)c1ccc2nc3ccc(=[N+](C)C)cc-3sc2c1,–,active: 18.5 µM
CCN1/C(=C/C=C/c2sc3ccccc3[n+]2CC)Sc2ccccc21,–,active: 0.465 µM
CC1(C)CCC2=C(O1)c1ccccc1C(=O)C2=O,–,"inconclusive: 36.9 µM [cytotoxic, single point]"
COc1cccc2c1C(=O)c1c(O)c3c(c(O)c1C2=O)C[C@@](O)(C(=O)CO)C[C@@H]3O[C@H]1C[C@H](N)[C@H](O[C@@H]2CCCCO2)[C@H](C)O1,–,"inconclusive: 18.5 µM [cytotoxic, partial curve]"

Structure (SMILES),"activity, negative = cytotoxic",Potency
CC(C)(O)c1cc2nc(-c3cnc(N)nc3)nc(N3CCOCC3)c2s1,–,"inconclusive: 0.522 µM [cytotoxic, full curve]"
CCCC(=O)O[C@]1(C(=O)CCl)[C@@H](C)C[C@H]2[C@@H]3CCC4=CC(=O)C=C[C@]4(C)[C@@]3(F)C(=O)C[C@@]21C,–,"inconclusive: 36.9 µM [cytotoxic, single point]"
COc1cc2c(Oc3ccc(NC(=O)C4(C(=O)Nc5ccc(F)cc5)CC4)cc3F)ccnc2cc1OCCCN1CCOCC1,–,active: 20.8 µM
C=CC(=O)Nc1cccc(Sc2nc(Nc3ccc(N4CCN(C)CC4)cc3)ncc2Cl)c1,–,"inconclusive: 5.85 µM [cytotoxic, full curve]"
N=C1N=C(N)c2cc3ccccc3cc21,–,"inconclusive: 53.7 µM [cytotoxic, single point]"
Clc1ccc(C(Cn2ccnc2)OCc2ccc(Sc3ccccc3)cc2)c(Cl)c1 (stereo not given),–,"inconclusive: 36.9 µM [cytotoxic, single point]"
C=C(c1ccc(C(=O)O)cc1)c1cc2c(cc1C)C(C)(C)CCC2(C)C,inactive: 17.8%,–
Cc1cc(OCCCc2c(C(=O)O)n(Cc3cccnc3)c3c(-c4c(COc5ccc(N6CCN([S+](C)(=O)[O-])CC6)cc5)nn(C)c4C)cccc23)cc(C)c1Cl,–,"inconclusive: 26.1 µM [cytotoxic, single point]"
Nc1ncnc2c1ncn2[C@@H]1O[C@@H](CO)[C@H](O)[C@H]1O,–,"inconclusive: 0.234 µM [rising, full curve, poor fit]"
Cc1[nH]c(C=C2C(=O)Nc3ccc(S(=O)(=O)Cc4c(Cl)cccc4Cl)cc32)c(C)c1C(=O)N1CCC[C@H]1CN1CCCC1,–,active: 32.9 µM
C=CC(=O)Nc1cc2c(Nc3ccc(F)c(Cl)c3)ncnc2cc1C#CC(C)(C)N1CCN(C)CC1,–,active: 19.1 µM
CN(C)c1ccc(C(=C2C=CC(=[N+](C)C)C=C2)c2ccccc2)cc1,–,active: 0.737 µM
OC(CN1CCC(Cc2ccc(F)cc2)CC1)c1ccc(Cl)cc1 (stereo not given),inactive: 1.73%,–
CO[C@H]1C=CC=C(C)C(=O)NC2=CC(=O)C(NCCN(C)C)=C(C[C@@H](C)C[C@H](OC)[C@@H](O)[C@@H](C)C=C(C)[C@@H]1OC(N)=O)C2=O,inactive: 6.06%,–
O=C1c2ccccc2-[n+]2ccc3c([nH]c4ccccc43)c21,–,active: 7.37 µM
CCCCc1ccc2nc(NC(=O)OC)[nH]c2c1,–,"inconclusive: 2.93 µM [cytotoxic, full curve]"
O=C(Nc1ccc([N+](=O)[O-])cc1Cl)c1cc(Cl)ccc1O,–,active: 3.62 µM
CNCC[C@H](Oc1cccc2ccccc12)c1cccs1,inactive: -7.81%,–
CS(=O)(=O)CCNCc1ccc(-c2ccc3ncnc(Nc4ccc(OCc5cccc(F)c5)c(Cl)c4)c3c2)o1,–,"inconclusive: 32.9 µM [cytotoxic, single point]"
O=C1C(Cl)=C(NCCN2CCOCC2)C(=O)c2ncccc21,–,active: 20.8 µM

# No new results follow: entries from further up.
Structure (SMILES),"activity, negative = cytotoxic",Potency
C=CC(=O)Nc1cccc(Sc2nc(Nc3ccc(N4CCN(C)CC4)cc3)ncc2Cl)c1,–,"inconclusive: 5.85 µM [cytotoxic, full curve]"
N=C1N=C(N)c2cc3ccccc3cc21,–,"inconclusive: 53.7 µM [cytotoxic, single point]"
Clc1ccc(C(Cn2ccnc2)OCc2ccc(Sc3ccccc3)cc2)c(Cl)c1 (stereo not given),–,"inconclusive: 36.9 µM [cytotoxic, single point]"
